The labels stand for the following.
B1: N393A: PH20sHis N-glycosylation site mutant N393A, SEQ ID NO:189 (protein)
chain: MGVLKFKHIFFRSFVKSSGVSQIVFTFLLIPCCLTLNFRAPPVIPNVPFLWAWNAPSEFCLGKFDEPLDMSLFSFIGSPRINATGQGVTIFYVDRLGYYPYIDSITGVTVNGGIPQKISLQDHLDKAKKDITFYMPVDNLGMAVIDWEEWRPTWARNWKPKDVYKNRSIELVQQQNVQLSLTEATEKAKQEFEKAGKDFLVETIKLGKLLRPNHLWGYYLFPDCYNHHYKKPGYNGSCFNVEIKRNDDLSWLWNESTALYPSIYLNTQQSPVAATLYVRNRVREAIRVSKIPDAKSPLPVFAYTRIVFTDQVLKFLSQDELVYTFGETVALGASGIVIWGTLSIMRSMKSCLLLDNYMETILNPYIINVTLAAKMCSQVLCQEQGVCIRKNWASSDYLHLNPDNFAIQLEKGGKFTVRGKPTLEDLEQFSEKFYCSCYSTLSCKEKADVKDTDAVDVCIADGVCIDAFLKPPMETEEPQIFYNASPSTLSHHHHHH
modifications: His tag; PH20sHis-N393A (mut2)
B2: N82A/N166A/N254A: PH20sHis triple mutant, SEQ ID NO:209 (protein)
chain: B1 chain with N82A, N166A, N254A, A393N
modifications: His tag; PH20sHis N82A/N166A/N254A
B3: N82A/N254A: PH20sHis double mutant, SEQ ID NO:207 (protein)
chain: B1 chain with N82A, N254A, A393N
modifications: His tag; PH20sHis N82A/N254A
B4: HZ24-PH20sHis: his-tagged PH20 (SEQ ID NO:187), human PH20 clone with HexaHis tag after amino acid S490 (protein)
chain: B1 chain with A393N
modifications: His6 tag; PH20sHis
B5: N166A/N254A: PH20sHis double mutant, SEQ ID NO:208 (protein)
chain: B1 chain with N166A, N254A, A393N
modifications: His tag; PH20sHis N166A/N254A
B6: N82A/N166A: PH20sHis double mutant, SEQ ID NO:206 (protein)
chain: B1 chain with N82A, N166A, A393N
modifications: His tag; PH20sHis N82A/N166A
B7: N368A: PH20sHis N-glycosylation site mutant N368A, SEQ ID NO:188 (protein)
chain: B1 chain with N368A, A393N
modifications: His tag; PH20sHis-N368A (mut1)

Data on seven molecules can be found in patent US9284543B2, “Neutral active soluble truncated PH20 polypeptides and uses thereof” (Halozyme, Inc., priority 2008, dated 2016).

Numbering of substitutions follows the chain as printed. In names and notes the source's numbering stands.

For the first data set, the system named is CHO-S cells. Briefly: Secretion of N-glycan site specific deglycosylation mutants into the media (Western blot). The class given is cell-based, Chinese Hamster. Particulars: Western blot analysis. On the technique in general: In western blotting, separated proteins are transferred to a membrane and probed.
Turning to B1, the Protein Expression entry was “reduced protein expression”.

The data set is the same for the next values; noted with them: expressed in CHO-S cells; secretion into the media.
For the molecule B1, the Secretion entry was “observed in the media and YES”.
Still for that read-out and setting: the result for B2 reads “YES”; that for B3, “YES”; that for B4, “YES”.
Same read-out and setting: the result for B5 reads “YES”; that for B6, “YES”.

Another data set concerns CHO cells. Description: Immunofluorescent analysis of CHO cells with an anti-PH20 antibody. The class given is cell-based, Chinese Hamster. Particulars: 48 hours post-transfection.
With B1, the “Localisation of PH20 in transfected CHO cells” value is recorded as “accumulate inside the cells”.
On the same count and under the same terms, the result for B7 reads “accumulate inside the cells”.
